Article PMC8429728, “TNK1 is a ubiquitin-binding and 14-3-3-regulated kinase that can be targeted to block tumor growth” (Nature Communications, 2021)

Target: T1, FLAG-TNK1 (stably expressed in A549) (human) (UniProt Q13470)
T1 sequence: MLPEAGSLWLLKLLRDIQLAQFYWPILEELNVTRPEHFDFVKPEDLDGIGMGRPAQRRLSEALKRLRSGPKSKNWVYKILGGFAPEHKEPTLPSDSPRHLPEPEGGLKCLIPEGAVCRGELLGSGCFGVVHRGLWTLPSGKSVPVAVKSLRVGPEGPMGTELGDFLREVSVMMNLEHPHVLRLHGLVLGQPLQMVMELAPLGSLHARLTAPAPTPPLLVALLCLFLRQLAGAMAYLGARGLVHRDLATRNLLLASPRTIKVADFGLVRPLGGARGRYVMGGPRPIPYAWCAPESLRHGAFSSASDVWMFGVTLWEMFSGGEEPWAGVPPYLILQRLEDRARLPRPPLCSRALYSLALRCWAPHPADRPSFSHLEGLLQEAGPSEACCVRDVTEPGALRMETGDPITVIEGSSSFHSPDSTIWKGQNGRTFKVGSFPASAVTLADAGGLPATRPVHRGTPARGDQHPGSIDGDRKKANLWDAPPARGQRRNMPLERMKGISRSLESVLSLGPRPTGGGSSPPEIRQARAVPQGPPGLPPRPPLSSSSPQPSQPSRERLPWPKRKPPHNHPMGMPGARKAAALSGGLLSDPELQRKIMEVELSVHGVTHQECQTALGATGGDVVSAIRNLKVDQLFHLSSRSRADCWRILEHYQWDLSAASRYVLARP
Experiment: co-IP; FLAG-TNK1 precipitated on FLAG resin from A549 cells stably expressing it, after siRNA (100 nM) against individual MARK kinases; immunoblotted for pS502 and 14-3-3

14-3-3 (endogenous, isoform not told) (human (endogenous in HEK-293T or A549))
binding: binds

No constants are given. Whether binding was seen depends on the method and setting. Binding seen in cells or lysates may run through a third protein. Binding can be weak; no strength is given. Tags and fused reporters may be left off the sequences shown.
